Measurements: patent US20150284812A1 (priority 2012, published 2015)

Experiments:
[1] = system: gene expression control region of the human CYP3A4 gene (EGFP reporter)
Procedure: Forty-eight hours later (corresponding to Day 14 of differentiation culture), the total area fluorescence intensities of EGFP and DsRed were analyzed under a fluorescence microscope (FIG. 16).

COC(=O)C1=C(C)NC(C)=C(C(=O)OC)C1c1ccccc1[N+](=O)[O-] [nifedipine]
expression of EGFP (total area fluorescence intensity) [1]: induced
cellular damage to HepaRG cells (HepaRG cells): high cellular damage
